Data source: PubChem BioAssay AID1508588 (Peter MacCallum Cancer Centre, 2020)
Test: 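Genome-wide search for knock-downs that heighten vemurafenib action in melanoma cells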 (primary screen). System: human WM266.4 melanoma cells (BRAF V600 mutant). Reagent: siRNA pool against human genes, 40 nM. Duration: 96 h from transfection to read-out. Treatment: vemurafenib 300 nM (about IC25), added 48 h after transfection, for 48 h; comparison arm got DMSO vehicle only. Read-out: 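Cell gain (DAPI nuclei at end minus before drug, mean of two replicates) and medium lactate by absorbance per cell, both as ratio to non-targeting siRNA, also grouped into fold-change classes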. Direction: cell gain with vemurafenib: higher = more cell gain than with non-targeting siRNA; lactate per cell with vemurafenib: higher = more lactate made per cell. Call rule: 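Enhancement is called by pairing each knock-down's vehicle-arm and drug-arm fold-change classes for viability or glycolysis; which class combinations qualify is not given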. Meaning of the calls: active = enhances vemurafenib effect; inactive = no enhancement seen.
Here is one part, drawn at random, of about 18,000 deposited reagents. 790 of all reagents (4.4%) count as active. 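Calls rest on a combination of fold-change classes in drug and vehicle arms, not all shown here.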 Entries without a mark were called inactive.

For CNOT12 (CCR4-NOT transcription complex subunit 12), the entry reads cell gain with vemurafenib 0.37; lactate per cell with vemurafenib 1.38.
Silencing of PCDHA9 (protocadherin alpha 9) gave: cell gain with vemurafenib 0.53; lactate per cell with vemurafenib 0.71.
Silencing of TGFBR3 (transforming growth factor beta receptor 3) gave: cell gain with vemurafenib 0.46; lactate per cell with vemurafenib 0.96.
For MICU3 (mitochondrial calcium uptake 3), the values are cell gain with vemurafenib 0.95; lactate per cell with vemurafenib 0.44.
DNAH3 (dynein axonemal heavy chain 3) gave cell gain with vemurafenib 0.21; lactate per cell with vemurafenib 2.21.
With knock-down of SREBF1 (sterol regulatory element binding transcription factor 1), the record shows cell gain with vemurafenib 0.74; lactate per cell with vemurafenib 0.62.
With knock-down of ATP5F1D (ATP synthase F1 subunit delta), the screen gave cell gain with vemurafenib 0.58; lactate per cell with vemurafenib 2.16.
Silencing of MT3 (metallothionein 3) resulted in: cell gain with vemurafenib 0.72; lactate per cell with vemurafenib 0.56.
Depletion of TNFRSF10D (TNF receptor superfamily member 10d) gave: cell gain with vemurafenib 0.46 (active); lactate per cell with vemurafenib 0.19.
Depletion of KANSL1L (KAT8 regulatory NSL complex subunit 1 like) resulted in: cell gain with vemurafenib 0.83; lactate per cell with vemurafenib 0.56.

Reformatted: results already given.
| gene | cell gain with vemurafenib | lactate per cell with vemurafenib |
| --- | --- | --- |
| MICU3 (mitochondrial calcium uptake 3) | 0.95 | 0.44 |
| DNAH3 (dynein axonemal heavy chain 3) | 0.21 | 2.21 |

The results go on:
Against ING1 (inhibitor of growth family member 1), the entry reads cell gain with vemurafenib 0.84; lactate per cell with vemurafenib 0.68.
Knock-down of TMEM61 (transmembrane protein 61) resulted in: cell gain with vemurafenib 0.17; lactate per cell with vemurafenib 0.95.
For YIF1A the deposit lists cell gain with vemurafenib 0.47; lactate per cell with vemurafenib 0.65.
TBX3 (T-box transcription factor 3) scored cell gain with vemurafenib 0.53; lactate per cell with vemurafenib 0.94.
For NIPAL3 (NIPA like domain containing 3), the entry reads cell gain with vemurafenib 0.9; lactate per cell with vemurafenib 0.94.
TLR3 (toll like receptor 3) gave cell gain with vemurafenib 0.32; lactate per cell with vemurafenib 0.92.
Knock-down of KIR3DL3 gave: cell gain with vemurafenib 1.17; lactate per cell with vemurafenib 0.44.
PIK3CA gave cell gain with vemurafenib 0.61; lactate per cell with vemurafenib 0.9.
Knock-down of UGT1A10 (UDP glucuronosyltransferase family 1 member A10) came out at: cell gain with vemurafenib 0.44; lactate per cell with vemurafenib 0.77.
With knock-down of DEFB126 (defensin beta 126) the results were cell gain with vemurafenib 0.12; lactate per cell with vemurafenib 2.28.
Knock-down of FZD9 (frizzled class receptor 9) came out at: cell gain with vemurafenib 0.27; lactate per cell with vemurafenib 2.9.
For TNFSF12-TNFSF13 (TNFSF12-TNFSF13 readthrough) the deposit lists cell gain with vemurafenib 1.31; lactate per cell with vemurafenib 0.45.
For TSPY2 (testis specific protein Y-linked 2), the entry reads cell gain with vemurafenib 0.12; lactate per cell with vemurafenib 1.52.
Against UTP23 (UTP23 small subunit processome component), the entry reads cell gain with vemurafenib 0.64; lactate per cell with vemurafenib 1.75.
ANXA9 (annexin A9) scored cell gain with vemurafenib -0.23; lactate per cell with vemurafenib 2.67.
PTPRM (protein tyrosine phosphatase receptor type M) showed cell gain with vemurafenib 0.64; lactate per cell with vemurafenib 0.51.
After knock-down of RNF217 (ring finger protein 217), the record shows cell gain with vemurafenib 0.89; lactate per cell with vemurafenib 0.9.
